# Values from PubChem BioAssay AID1259291 (Sanger Institute, 2017)
# Screen: 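Genes needed for HT29 colorectal cancer cell survival or for sensitivity to drugs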 (primary screen)
# System: HT29 human colorectal cancer cells
# Reagent: siRNA pool against human genes
# Conditions: anchor drugs added a day after transfection: BYL719 at 1 µM, cetuximab at 5 µg/ml or trametinib at 10 nM, or DMSO vehicle alone
# Read-out: 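Cell viability as a fraction of the non-targeting pool, mean of replicates, robust z-scores from control wells; synergy scores for BYL719 (1 µM), cetuximab (5 µg/ml), trametinib (10 nM)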
# Direction: robust z-score, knock-down alone: higher = more viable cells
# Hit rule: 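a knock-down alone scoring under -3 on robust z-score is called essential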
# Meaning of the calls: active = essential (knock-down alone); inactive = no change alone
# The whole screen tested 794 reagents; this is an unselected part. 15 of them (1.9%) were called active. 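Calls rest on knock-down alone; drug synergy scores do not affect them; drugs added a day post-transfection, DMSO vehicle as comparison.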 A number with no mark means an inactive call. Not all columns of the deposit are shown. The record does not give: the amount of reagent, the time to read-out.
gene knocked down,"robust z-score, knock-down alone"
SRGAP3 (SLIT-ROBO Rho GTPase activating protein 3),0.552
MAPK7 (mitogen-activated protein kinase 7),0.552
PCK1 (phosphoenolpyruvate carboxykinase 1),0.135
PIK3R4 (phosphoinositide-3-kinase regulatory subunit 4),0.473
MAP3K4 (mitogen-activated protein kinase kinase kinase 4),0.552
EPHA5 (EPH receptor A5),0.209
MYO3A (myosin IIIA),-1.17
RYK (receptor like tyrosine kinase),0.552
DGKA (diacylglycerol kinase alpha),0.337
CAMK2D (calcium/calmodulin dependent protein kinase II delta),0.552
"LYN (LYN proto-oncogene, Src family tyrosine kinase)",-0.237
PRKAG3 (protein kinase AMP-activated non-catalytic subunit gamma 3),0.552
"FGR (FGR proto-oncogene, Src family tyrosine kinase)",-2.3
TGFBR3 (transforming growth factor beta receptor 3),0.211
AK7 (adenylate kinase 7),0.552
DDR1 (discoidin domain receptor tyrosine kinase 1),0.552
FXN (frataxin),0.552
CKS2 (CDC28 protein kinase regulatory subunit 2),-3
SF3B1 (splicing factor 3b subunit 1),-3.45 (active)
FOXP1 (forkhead box P1),0.296

Looked up above:
Value of CAMK2D (calcium/calmodulin dependent protein kinase II delta) in “robust z-score, knock-down alone”: 0.552
Result for CKS2 (CDC28 protein kinase regulatory subunit 2) under “robust z-score, knock-down alone”: -3
